PubChem BioAssay AID1508597 – Cure First | 2020

Assay: 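Genes whose silencing sensitises or protects ovarian cancer cells against rucaparib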 (primary screen)
Cell system: human ovarian carcinoma lines grown from tumours: OCI-P5x (papillary serous) and OCI-C5x (clear cell)
Knock-down reagent: siRNA pool against human genes, 1.25 pmol siRNA per well
Duration: 72 h or 96 h, depending on the cell culture
Challenge: rucaparib 20 µM (about IC30) or vehicle, present until read-out
Rucaparib or vehicle: Vehicle
Cell line: OCI-P5x (serous)
Read-out: 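Luminescent ATP-based viability assay read 72 or 96 h after transfection, depending on culture, given as normalised percent viability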
Scale: viability, normalised: higher = more viable cells remaining
Call rule: 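a well counts as a hit if its normalised viability is under 80 percent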
Meaning of the calls: active = viability under 80%; inactive = viability 80% or more
Shown is an unselected part of the about 2,100 reagents, under one of the conditions tested. 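Calls flag viability under 80% in either arm, not effects specific to rucaparib; the reference for percent is not stated.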 Unmarked entries are inactive. Some reagents were tested in more than one well and are listed for each. The record does not give: the 100% reference.

| Target gene | PubChem SID | technical replicate | viability, normalised (%) |
| --- | --- | --- | --- |
| JADE3 (GeneID 9767) | SID405527145 | 1 | 73.3 (active) |
| JADE3 (GeneID 9767) | SID405527145 | 2 | 70.1 (active) |
| JADE3 (GeneID 9767) | SID405527145 | 3 | 80.2 |
| GPX1 (GeneID 2876) | SID405526826 | 1 | 53.5 (active) |
| GPX1 (GeneID 2876) | SID405526826 | 2 | 63 (active) |
| GPX1 (GeneID 2876) | SID405526826 | 3 | 53.5 (active) |
| TBXT (GeneID 6862) | SID405526516 | 1 | 75.3 (active) |
| TBXT (GeneID 6862) | SID405526516 | 2 | 73.3 (active) |
| TBXT (GeneID 6862) | SID405526516 | 3 | 47.8 (active) |
| CLOCK (GeneID 9575) | SID405528143 | 1 | 58.1 (active) |
| CLOCK (GeneID 9575) | SID405528143 | 2 | 70 (active) |
| CLOCK (GeneID 9575) | SID405528143 | 3 | 65 (active) |
| BAZ2A (GeneID 11176) | SID405528018 | 1 | 44.7 (active) |
| BAZ2A (GeneID 11176) | SID405528018 | 2 | 50.8 (active) |
| BAZ2A (GeneID 11176) | SID405528018 | 3 | 47.1 (active) |
| FNTA (GeneID 2339) | SID405526789 | 1 | 77.1 (active) |
| FNTA (GeneID 2339) | SID405526789 | 2 | 76.8 (active) |
| FNTA (GeneID 2339) | SID405526789 | 3 | 92.9 |
| PHF1 (GeneID 5252) | SID405527138 | 1 | 44.7 (active) |
| PHF1 (GeneID 5252) | SID405527138 | 2 | 44.9 (active) |
| PHF1 (GeneID 5252) | SID405527138 | 3 | 75.7 (active) |
| ERCC8 (GeneID 1161) | SID405528400 | 1 | 76.6 (active) |
| ERCC8 (GeneID 1161) | SID405528400 | 2 | 82.6 |
| ERCC8 (GeneID 1161) | SID405528400 | 3 | 82.6 |
| ZFP82 (GeneID 284406) | SID405526457 | 1 | 90 |
| ZFP82 (GeneID 284406) | SID405526457 | 2 | 85.3 |
| ZFP82 (GeneID 284406) | SID405526457 | 3 | 86.6 |
| MIER1 (GeneID 57708) | SID405527011 | 1 | 58.1 (active) |
| MIER1 (GeneID 57708) | SID405527011 | 2 | 70.1 (active) |
| MIER1 (GeneID 57708) | SID405527011 | 3 | 66.1 (active) |
| SLC22A11 (GeneID 55867) | SID405527313 | 1 | 42.1 (active) |
| SLC22A11 (GeneID 55867) | SID405527313 | 2 | 48 (active) |
| SLC22A11 (GeneID 55867) | SID405527313 | 3 | 43.5 (active) |
| GSK3A (GeneID 2931) | SID405526830 | 1 | 88.6 |
| GSK3A (GeneID 2931) | SID405526830 | 1 | 61.5 (active) |
| GSK3A (GeneID 2931) | SID405526830 | 2 | 85.3 |
| GSK3A (GeneID 2931) | SID405526830 | 2 | 51.3 (active) |
| GSK3A (GeneID 2931) | SID405526830 | 3 | 70.6 (active) |
| GSK3A (GeneID 2931) | SID405526830 | 3 | 75.8 (active) |
| ERCC1 (GeneID 2067) | SID405526761 | 1 | 48.1 (active) |
| ERCC1 (GeneID 2067) | SID405526761 | 1 | 73 (active) |
| ERCC1 (GeneID 2067) | SID405526761 | 2 | 70.9 (active) |
| ERCC1 (GeneID 2067) | SID405526761 | 2 | 42.7 (active) |
| ERCC1 (GeneID 2067) | SID405526761 | 3 | 43.8 (active) |
| ERCC1 (GeneID 2067) | SID405526761 | 3 | 47.3 (active) |
| GTF2H4 (GeneID 2968) | SID405526472 | 1 | 51.8 (active) |
| GTF2H4 (GeneID 2968) | SID405526472 | 1 | 52.5 (active) |
| GTF2H4 (GeneID 2968) | SID405526472 | 2 | 48.3 (active) |
| GTF2H4 (GeneID 2968) | SID405526472 | 2 | 62.5 (active) |
| GTF2H4 (GeneID 2968) | SID405526472 | 3 | 52 (active) |
| GTF2H4 (GeneID 2968) | SID405526472 | 3 | 52.5 (active) |
| KDM5A (GeneID 5927) | SID405526391 | 1 | 59.6 (active) |
| KDM5A (GeneID 5927) | SID405526391 | 2 | 54.2 (active) |
| KDM5A (GeneID 5927) | SID405526391 | 3 | 59.6 (active) |
| MUTYH (GeneID 4595) | SID405528440 | 1 | 50.1 (active) |
| MUTYH (GeneID 4595) | SID405528440 | 2 | 69.8 (active) |
| MUTYH (GeneID 4595) | SID405528440 | 3 | 65 (active) |

8 of these entries in another layout.
ERCC8 (GeneID 1161) [SID405528400], technical replicate 3: viability, normalised (%) = 82.6
ZFP82 (GeneID 284406) [SID405526457], technical replicate 1: viability, normalised (%) = 90
ZFP82 (GeneID 284406) [SID405526457], technical replicate 2: viability, normalised (%) = 85.3
ZFP82 (GeneID 284406) [SID405526457], technical replicate 3: viability, normalised (%) = 86.6
MIER1 (GeneID 57708) [SID405527011], technical replicate 1: viability, normalised (%) = 58.1 (active)
MIER1 (GeneID 57708) [SID405527011], technical replicate 2: viability, normalised (%) = 70.1 (active)
MIER1 (GeneID 57708) [SID405527011], technical replicate 3: viability, normalised (%) = 66.1 (active)
SLC22A11 (GeneID 55867) [SID405527313], technical replicate 1: viability, normalised (%) = 42.1 (active)
